From doi:10.1101/340851
No constants are given. Whether binding was seen depends on the method and setting. Some binding calls cover weakened binding; strength is not graded here.

Sequences of proteins named here, by UniProt entry; tags and fusion partners are left off. Residues count along the entry.
UniProt P55854, residues 1-92: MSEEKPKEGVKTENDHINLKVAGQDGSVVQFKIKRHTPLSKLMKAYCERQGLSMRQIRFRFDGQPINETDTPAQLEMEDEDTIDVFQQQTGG

Target: T1, PIAS4 (SUMO E3), as spotted on the protein array (UniProt Q8N2W9)
T1 sequence: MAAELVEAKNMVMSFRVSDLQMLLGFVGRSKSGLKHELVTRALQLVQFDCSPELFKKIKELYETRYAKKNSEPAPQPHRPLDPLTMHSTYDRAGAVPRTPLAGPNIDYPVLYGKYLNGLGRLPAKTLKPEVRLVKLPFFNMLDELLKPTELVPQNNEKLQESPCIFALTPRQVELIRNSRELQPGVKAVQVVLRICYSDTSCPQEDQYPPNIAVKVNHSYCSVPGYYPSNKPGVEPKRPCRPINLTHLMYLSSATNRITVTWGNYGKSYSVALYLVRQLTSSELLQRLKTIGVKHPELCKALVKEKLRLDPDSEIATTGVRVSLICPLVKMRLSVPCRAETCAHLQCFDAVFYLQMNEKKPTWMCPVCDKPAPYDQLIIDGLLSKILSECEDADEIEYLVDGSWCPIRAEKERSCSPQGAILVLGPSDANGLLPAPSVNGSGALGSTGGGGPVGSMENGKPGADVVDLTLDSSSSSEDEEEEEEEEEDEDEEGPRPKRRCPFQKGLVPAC
Test: peptide or protein array

poly-SUMO-3 (from UniProt P55854 1-92)
binding: binds
